The target in one assay is T1, Myc-RNF128 (UniProt Q8TEB7).
T1 sequence: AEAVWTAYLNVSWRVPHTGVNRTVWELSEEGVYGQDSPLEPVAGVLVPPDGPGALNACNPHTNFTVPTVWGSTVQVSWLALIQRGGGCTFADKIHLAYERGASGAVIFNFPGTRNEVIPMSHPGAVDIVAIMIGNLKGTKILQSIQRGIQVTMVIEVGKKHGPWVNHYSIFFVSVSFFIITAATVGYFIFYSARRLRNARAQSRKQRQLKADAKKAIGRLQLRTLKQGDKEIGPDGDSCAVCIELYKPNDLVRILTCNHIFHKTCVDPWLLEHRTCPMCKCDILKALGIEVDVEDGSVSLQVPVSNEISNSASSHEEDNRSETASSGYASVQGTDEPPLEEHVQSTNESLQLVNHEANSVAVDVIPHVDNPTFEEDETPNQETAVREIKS
The experiment in a line: co-IP; reverse: cells co-expressing Myc-RNF128 and Flag-IL-3Rα; immunoprecipitation with anti-Myc antibody; immunoblot. Background: A western blot detects proteins with antibodies after separation by electrophoresis.

Amino acid sequences for entries named in this document (tags omitted). Residues count along the entry.
UniProt P26951, residues 19-378: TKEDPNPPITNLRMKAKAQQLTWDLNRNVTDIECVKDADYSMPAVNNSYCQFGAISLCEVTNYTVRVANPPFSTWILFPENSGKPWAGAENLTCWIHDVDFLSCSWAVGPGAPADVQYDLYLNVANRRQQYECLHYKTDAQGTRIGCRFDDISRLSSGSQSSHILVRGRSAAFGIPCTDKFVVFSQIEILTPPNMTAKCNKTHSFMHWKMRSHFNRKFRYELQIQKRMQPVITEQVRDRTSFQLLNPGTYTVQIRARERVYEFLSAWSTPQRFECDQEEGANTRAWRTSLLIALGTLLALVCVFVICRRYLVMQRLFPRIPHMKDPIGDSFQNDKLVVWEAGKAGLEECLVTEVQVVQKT

The next assay has as its target Flag-IL-3Rα (UniProt P26951). The experiment in a line: co-IP; 293T cells co-transfected with HA-RNF128 (or HA-tagged truncated forms) and Flag-tagged receptor; RIPA lysate; immunoprecipitation with anti-Flag antibody on protein A agarose, 4 °C; immunoblot.
Another assay has as its target T2, Flag-tagged IL-3Rβ (UniProt P32927).
T2 sequence: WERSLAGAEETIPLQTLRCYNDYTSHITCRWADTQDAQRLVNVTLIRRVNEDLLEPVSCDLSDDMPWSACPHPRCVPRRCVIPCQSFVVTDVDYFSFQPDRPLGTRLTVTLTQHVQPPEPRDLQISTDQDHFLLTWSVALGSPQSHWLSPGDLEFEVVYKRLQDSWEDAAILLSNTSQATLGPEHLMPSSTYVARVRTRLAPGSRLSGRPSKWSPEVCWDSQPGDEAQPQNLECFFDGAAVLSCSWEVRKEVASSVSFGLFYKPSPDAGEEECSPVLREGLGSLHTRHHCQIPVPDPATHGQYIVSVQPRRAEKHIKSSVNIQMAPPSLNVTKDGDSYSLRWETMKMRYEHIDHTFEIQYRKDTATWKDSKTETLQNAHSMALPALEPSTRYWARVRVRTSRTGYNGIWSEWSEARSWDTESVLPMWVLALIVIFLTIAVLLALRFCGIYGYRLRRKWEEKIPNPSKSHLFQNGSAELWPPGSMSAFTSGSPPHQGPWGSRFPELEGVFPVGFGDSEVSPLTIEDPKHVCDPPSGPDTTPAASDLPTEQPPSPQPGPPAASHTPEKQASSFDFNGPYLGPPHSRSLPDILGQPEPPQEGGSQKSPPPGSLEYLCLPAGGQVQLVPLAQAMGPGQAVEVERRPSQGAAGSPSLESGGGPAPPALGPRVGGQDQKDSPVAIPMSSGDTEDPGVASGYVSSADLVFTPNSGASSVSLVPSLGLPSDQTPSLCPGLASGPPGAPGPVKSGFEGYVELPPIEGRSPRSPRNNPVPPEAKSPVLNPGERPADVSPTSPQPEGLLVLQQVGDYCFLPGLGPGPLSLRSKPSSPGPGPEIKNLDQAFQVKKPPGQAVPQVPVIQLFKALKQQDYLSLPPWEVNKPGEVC
The description is as above.

No constants are given. Whether binding was seen depends on the method and setting. In cells and extracts the contact can be indirect. Some binding calls cover weakened binding; strength is not graded here. Tags and fused reporters may be left off the sequences shown.

Consider “Flag-IL-3Rα (from UniProt P26951 19-378) (receptor)”, for which, in the assay with Myc-RNF128, the binding entry is listed as “binds”.

B1: HA-RNF128 (enzyme, UniProt Q8TEB7 39-428)
chain: T1 sequence
As to B1, the binding result in the assay with Flag-IL-3Rα is on record as “binds”; with Flag-tagged IL-3Rβ it was “no binding”.

These data come from paper PMC11067302.
